This is an account of results in patent US10703779B2 (THE GOVERNING COUNCIL OF THE UNIVERSITY OF TORONTO, priority 2015, dated 2020).

Square brackets hold non-standard residues; d marks the D form. Ends that are not written are not given here. Sar = CNCC(=O)O

The data set in a line: general procedure: Fmoc solid-phase peptide synthesis; 2-chlorotrityl chloride resin; HBTU. The conditions noted are these: cyclisation step, overall.

The substance P[Sar]LGFA had a cyclisation yield of 42% overall yield.
